Test results: article PMC9600989
Results are given in words; binding and its absence hold for the method and conditions named. Binding seen in cells or lysates may run through a third protein. For part of these data: Binding calls can cover weak binding; strength is not graded here. Where a sequence is shown, tags or fusion partners need not be part of it. One block for each binder: values may come before it.

Protein sequences, listed by entry. Tags and fused reporters are not part of them. Lines headed by an entry give the natural chain unless they say otherwise; changes in a name come on top.
UniProt P97438: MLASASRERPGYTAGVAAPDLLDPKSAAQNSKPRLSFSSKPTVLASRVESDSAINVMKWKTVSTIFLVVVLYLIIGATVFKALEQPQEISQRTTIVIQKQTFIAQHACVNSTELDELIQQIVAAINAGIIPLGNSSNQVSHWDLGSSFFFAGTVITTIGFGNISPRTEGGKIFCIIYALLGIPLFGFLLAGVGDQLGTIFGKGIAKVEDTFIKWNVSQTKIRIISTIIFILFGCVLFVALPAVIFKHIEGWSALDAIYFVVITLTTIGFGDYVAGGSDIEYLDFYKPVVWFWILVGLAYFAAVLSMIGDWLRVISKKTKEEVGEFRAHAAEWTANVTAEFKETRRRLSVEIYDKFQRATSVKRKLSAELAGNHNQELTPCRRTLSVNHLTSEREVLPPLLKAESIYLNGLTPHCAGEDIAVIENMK

What was measured:
[1] = biological target: Flag-tagged TREK1ΔN1,2 (mouse); assay: co-IP; HEK293T cells co-transfected with Flag-tagged channel and GFP-β-COP, RIPA lysate, IP with anti-Flag, blot with anti-GFP
[2] = biological target: Flag-tagged TREK1NΔ4 (only the N4 region deleted from the N-terminus of TREK1) (mouse) (UniProt P97438); assay: as above
[3] = biological target: Flag-tagged TREK1ΔN1 (mouse); assay: as above
[4] = biological target: Flag-tagged TREK1 isotype 1 (mouse); assay: as above
[5] = biological target: Flag-tagged TREK1ΔN (mouse); assay: as above
[6] = biological target: VC-TREK1 isotype 1 (C-terminal portion of Venus fused to TREK1 isotype 1) (mouse); assay: split reporter; BiFC with split Venus (VN173, VC155) in co-transfected HEK293T cells, fixed 24 h after transfection, confocal microscopy

binding [1]: binds
binding [2]: no binding
binding [3]: binds
binding [4]: binds
binding [5]: no binding
B1: GFP-tagged β-COP (protein, UniProt Q9JIF7 1-953)
chain: MTAAENVCYTLINVPMDSEPPSEISLKNDLEKGDVKSKTEALKKVIIMILNGEKLPGLLMTIIRFVLPLQDHTIKKLLLVFWEIVPKTTPDGRLLHEMILVCDAYRKDLQHPNEFIRGSTLRFLCKLKEAELLEPLMPAIRACLEHRHSYVRRNAVLAIYTIYRNFEHLIPDAPELIHDFLVNEKDASCKRNAFMMLIHADQDRALDYLSTCIDQVQTFGDILQLVIVELIYKVCHANPSERARFIRCIYNLLQSSSPAVKYEAAGTLVTLSSAPTAIKAAAQCYIDLIIKESDNNVKLIVLDRLVELKEHPAHERVLQDLVMDILRVLSTPDLEVRKKTLQLALDLVSSRNVEELVIVLKKEVIKTNNVSEHEDTDKYRQLLVRTLHSCSVRFPDMAANVIPVLMEFLSDSNEAAAADVLEFVREAIQRFDNLRMLIVEKMLEVFHAIKSVKIYRGALWILGEYCSTKEDIQSVMTEVRRSLGEIPIVESEIKKEAGELKPEEEITVGPVQKLVTEMGTYATQSALSSSRPTKKEEDRPPLRGFLLDGDFFVAASLATTLTKIALRYVALVQEKKKQNSFVAEAMLLMATILHLGKSSLPKKPITDDDVDRISLCLKVLSECSPLMNDIFNKECRQSLSQMLSAKLEEEKLSQKKESEKRNVTVQPDDPISFMQLTAKNEMNCKEDQFQLSLLAAMGNTQRKEAADPLASKLNKVTQLTGFSDPVYAEAYVHVNQYDIVLDVLVVNQTSDTLQNCTLELATLGDLKLVEKPSPLTLAPHDFANIKANVKVASTENGIIFGNIVYDVSGAASDRNCVVLSDIHIDIMDYIQPATCTDAEFRQMWAEFEWENKVTVNTNMTDLNDYLQHILKSTNMKCLTPEKALSGYCGFMAANLYARSIFGEDALANVSIEKPVHQGPDAAVTGHIRIRAKSQGMALSLGDKINLSQKKTSL

binding [6]: binds
B2: VN-β-COP (N-terminal portion of Venus fused to β-COP) (protein, UniProt Q9JIF7 1-953)
chain: B1 chain
